Test results: US20170189504A1, “NOVEL PEPTIDES AND COMBINATION OF PEPTIDES FOR USE IN IMMUNOTHERAPY AGAINST VARIOUS CANCERS” (immatics biotechnologies GmbH, priority 2015, published 2017)
For some of these results: Expression grades refer to the transcript from which the peptide derives; gene names, where given, were looked up from the sequence.

Assays:
[1] = tested on: HLA-A*24; test: Identification and relative LC-MS quantitation of HLA-A*24-presented tumor-associated peptides on tissue samples (presentation profiles, Tables 14A, 14B, 16, FIG. 1); parameters: species or system human; key to Presentation score GC / Presentation score NSCLC / Presentation score PCA / Presentation score GB / Presentation score HCC / Presentation score RCC: specifically presented on tumors (++++); very highly over-presented on tumors compared to a panel of normal tissues (+++); highly over-presented on tumors compared to a panel of normal tissues (++); over-presented on tumors compared to a panel of normal tissues (+)
[2] = tested on: source genes (mRNA); test: Gene and exon expression of source genes, TCGA tumor samples compared with normal tissue samples (Lonsdale, 2013) (Table 17); parameters: species or system human
[3] = tested on: source genes (mRNA); test: Expression profiling of source genes by in-house RNASeq of tumor and normal tissues (Table 18, FIG. 2); parameters: species or system human; key: very highly over-expressed in tumors compared to a panel of normal tissues (+++); highly over-expressed in tumors compared to a panel of normal tissues (++); over-expressed in tumors compared to a panel of normal tissues (+); conditions: source gene of peptide

Substance: 201: peptide found in NDC1 (gene looked up) (IYATEAHVF; listed as Homo sapiens) [compound 201]
- Presentation score GC ([1]; HLA-A*24 peptides, gastric cancer (N = 44) vs panel of normal tissues (N = 70)): +
- Presentation score GB ([1]; HLA-A*24 peptides, glioblastoma (N = 18) vs panel of normal tissues (N = 70)): +++
- Presentation score NSCLC ([1]; HLA-A*24 peptides, non-small cell lung cancer (N = 91) vs panel of normal tissues (N = 70)): ++
- Peptide Presentation on cancer entities ([1]; Table 14A, HLA-A*24-binding tumor-associated peptides, cancer entities on which the peptide was found presented): GB, GC, NSCLC, HCC, PCA
- Over-expression category of source gene (target coverage), BLCA ([2]; BLCA = Bladder urothelial carcinoma (N = 408), same cutoff): B (>= 20% of tumors above the cutoff, but <50%)
- Over-expression category of source gene (target coverage), BRCA ([2]; BRCA = Breast cancer (N = 1104), tumors more than 2-fold above highest 75% percentile of normal tissues): A (>=50% of tumors above the cutoff)
- Over-expression category of source gene (target coverage), CHOL ([2]; CHOL = Cholangiocarcinoma (N = 36), same cutoff): B (>= 20% of tumors above the cutoff, but <50%)
- Over-expression category of source gene (target coverage), COAD ([2]; COAD = Colon and rectal adenocarcinoma (N = 462), same cutoff): A (>=50% of tumors above the cutoff)
- Over-expression category of source gene (target coverage), DLBC ([2]; DLBC = Lymphoid neoplasm diffuse large B-cell lymphoma (N = 48), same cutoff): B (>= 20% of tumors above the cutoff, but <50%)
- Over-expression category of source gene (target coverage), ESCA ([2]; ESCA = Esophageal cancer (N = 185), same cutoff): A (>=50% of tumors above the cutoff)
- Over-expression category of source gene (target coverage), GBM ([2]; GBM = Glioblastoma multiforme (N = 169), same cutoff): B (>= 20% of tumors above the cutoff, but <50%)
- Over-expression category of source gene (target coverage), KIRC ([2]; KIRC = Clear cell kidney carcinoma (N = 534), same cutoff): C (>=5% of tumors above the cutoff, but <20%)
- Over-expression category of source gene (target coverage), KIRP ([2]; KIRP = Papillary kidney carcinoma (N = 291), same cutoff): C (>=5% of tumors above the cutoff, but <20%)
- Over-expression category of source gene (target coverage), LAML ([2]; LAML = Acute Myeloid Leukemia (N = 173), same cutoff): A (>=50% of tumors above the cutoff)
- Over-expression category of source gene (target coverage), LIHC ([2]; LIHC = Liver hepatocellular carcinoma (N = 374), same cutoff): C (>=5% of tumors above the cutoff, but <20%)
- Over-expression category of source gene (target coverage), LUAD ([2]; LUAD = Lung adenocarcinoma (N = 517), same cutoff): B (>= 20% of tumors above the cutoff, but <50%)
- Over-expression category of source gene (target coverage), LUSC ([2]; LUSC = Lung squamous cell carcinoma (N = 503), same cutoff): A (>=50% of tumors above the cutoff)
- Over-expression category of source gene (target coverage), OV ([2]; OV = Ovarian serous cystadenocarcinoma (N = 309), same cutoff): A (>=50% of tumors above the cutoff)
- Over-expression category of source gene (target coverage), PAAD ([2]; PAAD = Pancreatic ductal adenocarcinoma (N = 179), same cutoff): C (>=5% of tumors above the cutoff, but <20%)
- Over-expression category of source gene (target coverage), PRAD ([2]; PRAD = Prostate adenocarcinoma (N = 498), same cutoff): C (>=5% of tumors above the cutoff, but <20%)
- Over-expression category of source gene (target coverage), READ ([2]; READ = Colon and rectal adenocarcinoma (N = 167), same cutoff): A (>=50% of tumors above the cutoff)
- Over-expression category of source gene (target coverage), SKCM ([2]; SKCM = Skin cutaneous melanoma (N = 473), same cutoff): B (>= 20% of tumors above the cutoff, but <50%)
- Over-expression category of source gene (target coverage), STAD ([2]; STAD = Stomach adenocarcinoma (N = 415), same cutoff): A (>=50% of tumors above the cutoff)
- Over-expression category of source gene (target coverage), UCEC ([2]; UCEC = Uterine corpus endometrial carcinoma (N = 546), same cutoff): B (>= 20% of tumors above the cutoff, but <50%)
- Expression score BRCA ([3]; BRCA tumors vs panel of normal tissues): +
- Expression score CRC ([3]; colorectal cancer (N = 20) vs panel of normal tissues): +
- Expression score OSCAR ([3]; esophageal cancer incl. gastric-esophageal junction (N = 11) vs panel of normal tissues): ++
- Expression score GBC_CCC ([3]; gallbladder adenocarcinoma and cholangiocarcinoma (N = 3) vs panel of normal tissues): +
- Expression score GC ([3]; gastric cancer (N = 11) vs panel of normal tissues): +
- Expression score GB ([3]; glioblastoma (N = 24) vs panel of normal tissues): +
- Expression score NHL ([3]; non-Hodgkin lymphoma (N = 10) vs panel of normal tissues): ++
- Expression score NSCLC ([3]; non-small cell lung cancer (N = 11) vs panel of normal tissues): +
- Expression score OC ([3]; ovarian cancer (N = 12) vs panel of normal tissues): ++
- Expression score PC ([3]; pancreatic cancer (N = 26) vs panel of normal tissues): +
- Expression score SCLC ([3]; small cell lung cancer (N = 10) vs panel of normal tissues): ++
- Expression score UBC ([3]; urinary bladder cancer (N = 10) vs panel of normal tissues): +
- Expression score UEC ([3]; uterine cancer (N = 10) vs panel of normal tissues): +
